Some peptides are written in HELM: one residue between dots, names in brackets for other building blocks, links after the first $.
Experiment: general procedure: Fmoc solid-phase peptide synthesis
Details: whole synthesis, 214 nm

Substance	final purity (method not given) [%]
PEPTIDE1{[ac].Y.E.H.W.[am]}$$$$V2.0	97
PEPTIDE1{[Myr].[dY].[dD].[dH].[dQ].[am]}$$$$V2.0	97
Ac-YDKF-NH2	95
PEPTIDE1{[ac].W.D.H.F.[am]}$$$$V2.0	97
Ac-WEHF-NH2	96
PEPTIDE1{[ac].Y.D.H.F.[am]}$$$$V2.0	97
z-YERF-NH2 (z-DTP2)	97
PEPTIDE1{[ac].Y.E.R.F.[am]}$$$$V2.0	96
PEPTIDE1{[ac].W.E.H.W.[am]}$$$$V2.0	97
PEPTIDE1{[Myr].[dY].[dD].[dH].[dF].[am]}$$$$V2.0	95
PEPTIDE1{[Myr].[dY].[dE].[dR].[dF].[am]}$$$$V2.0	97
Ac-YEHF-NH2	95
z-YDHQ-NH2 (z-DNC)	96
PEPTIDE1{[Bz].[dY].[dE].[dR].[dF].[am]}$$$$V2.0	97
Ac-WDRF-NH2	97
Ac-WDHW-NH2	> 99
z-YDHF-NH2 (z-DTP1)	97
3-hydroxy-4-methoxy-benzyl-YERF-NH2	95
Ac-YEKW-NH2	> 99

Substance	final purity (method not given) [%]
Ac-YDRF-NH2	95
PEPTIDE1{[ac].W.E.K.F.[am]}$$$$V2.0	97
Ac-YERW-NH2	96
PEPTIDE1{[ac].Y.D.K.W.[am]}$$$$V2.0	96
PEPTIDE1{[ac].W.E.K.W.[am]}$$$$V2.0	97
PEPTIDE1{[Bz].[dY].[dD].[dH].[dQ].[am]}$$$$V2.0	98
PEPTIDE1{[ac].W.E.R.F.[am]}$$$$V2.0	95
PEPTIDE1{[Bz].[dY].[dD].[dH].[dF].[am]}$$$$V2.0	97
PEPTIDE1{[2ClZ].[dY].[dD].[dH].[dQ].[am]}$$$$V2.0	97
Ac-YDHW-NH2	95
PEPTIDE1{[ac].W.D.K.W.[am]}$$$$V2.0	97
PEPTIDE1{[2ClZ].[dY].[dD].[dH].[dF].[am]}$$$$V2.0	96
2CI-z-YERF-NH2	96
PEPTIDE1{[ac].Y.E.K.F.[am]}$$$$V2.0	95
PEPTIDE1{[ac].W.E.R.W.[am]}$$$$V2.0	97
PEPTIDE1{[ac].W.D.R.W.[am]}$$$$V2.0	97
Ac-WDKF-NH2	96
Ac-YDRW-NH2	95

From publication PMC4197335 (Cancer Cell, 2014)
